# Test results: PubChem BioAssay (NCATS)
# “And” between values parts separate entries of the source, which are not always exact repeats. Identical values can stand only once. Inconclusive results, whose numbers are uncertain, are shown with a selection of clear calls. Where a call stands in place of a potency, no number is given. For part of these data: A potency beside an inconclusive call is a rough fit, not a confirmed value. The source made the active and inactive calls. The call rests on the fitted dose curve; in most records, active means well fitted curve in the direction sought with a large enough effect; inconclusive means small, poorly fitted or top-dose-only effect, or another doubt; inactive means no such curve, though single readings can be large; an effect the other way counts as inactive or inconclusive.
# Key:
# [1] = Quantitative highthroughput screen to assess conditional lethalithy of P12 Ichikawa cells grown in Human Plasma-Like Medium with dialyzed fetal bovine serum (HPLM+ds) (AID 1963879); conditions: Potency: viability; further: nearly all actives have a fitted effect of over 35% in size
# How it was run: (§1)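 Each medium arm—HPLM with 10% dialyzed FBS, or RPMI1640 with 5 mM glucose and 10% untreated or dialyzed FBS—was screened against an 11-point, 3-fold compound titration for 48 h at 37 °C, with CellTiter-Glo luminescence as endpoint.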
# [2] = Quantitative highthroughput screen to assess conditional lethalithy of P12 Ichikawa cells grown in RPMI1640 with untreated serum (RPMI+s) (AID 1963881); conditions: Potency: viability; further: nearly all actives have a fitted effect of over 35% in size
# How it was run: as §1
# [3] = Cellular viability qHTS for adrenocortical cancer (ACC) cell line NCI-H295R (AID 1963990); conditions: CellTiter-Glo ATP luminescence, 48 h; series mostly up to 46.1 µM; further: nearly all actives have a fitted effect of over 60% in size
# How it was run: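 Readout: CellTiter-Glo luminescence, 20 min RT. Exposure: 48 h, 37C/5% CO2. Cells: NCI-H295R, ITS-DMEM serum-free. Range: up to 46 uM. Analysis: 4PL fit, IC50 plus efficacy.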
# [4] = Quantitative highthroughput screen to assess conditional lethalithy of P12 Ichikawa cells grown in RPMI1640 with dialyzed fetal bovine serum (RPMI+ds) (AID 1963880); conditions: Potency: P12-Ichikawa viability; further: nearly all actives have a fitted effect of over 35% in size
# How it was run: as §1
# [5] = Quantitative highthroughput screen to assess conditional lethalithy of SEM cells grown in RPMI1640 with unreated serum (RPMI+s) (AID 1963883); conditions: SEM B-ALL cells, CellTiter-Glo viability, 48 h; viability: at 45.8 µM (top of the series); further: nearly all actives have a fitted effect of over 35% in size
# How it was run: as §1
# [6] = Quantitative highthroughput screen to assess conditional lethalithy of SEM cells grown in RPMI1640 with dialyzed fetal bovine serum (RPMI+ds) (AID 1963884); conditions: SEM B-ALL cells, RPMI+dialyzed FBS, CellTiter-Glo viability, 48 h; viability: at 45.8 µM (top of the series); further: nearly all actives have a fitted effect of over 35% in size
# How it was run: as §1
# [7] = Quantitative highthroughput screen to assess conditional lethalithy of SEM cells grown in Human Plasma-Like Medium with dialyzed fetal bovine serum (HPLM+ds) (AID 1963882); further: nearly all actives have a fitted effect of over 35% in size
# How it was run: as §1
# [8] = Cellular viability qHTS for adrenocortical cancer (ACC) cell line SW-13 (AID 1963989); conditions: SW-13 ACC cells viability, CellTiter-Glo, 48 h; activity (max response): stronger effect = lower value; further: nearly all actives have a fitted effect of over 65% in size
# How it was run: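 Compound titrations (up to 46 uM final, in DMSO) were applied to SW-13 cells for 48 h at 37C/5% CO2. Reading used CellTiter-Glo after 20 min at room temperature; fitted curves yielded IC50 and efficacy.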
# Potency means the concentration at half of the fitted maximal effect.
structure (smiles),measurement,setting,value
COC(=O)C1=C(C)NC(C)=C(C(=O)OCCCN2CCC(c3ccccc3)(c3ccccc3)CC2)C1c1cccc([N+](=O)[O-])c1 (stereo not drawn),Potency,[1],inactive
same,Potency,[2],inactive
same,Potency,[3],active: 7.08 µM and active: 8.2 µM
Cc1cc(CS(=O)(=O)c2ccccc2)cc(OCc2ccc(CN3CCC[C@H]3CO)cc2)c1,Potency,[2],active: 1050 nM
CO[C@H]1C=CC=C(C)C(=O)NC2=CC(=O)C(NCCN(C)C)=C(C[C@@H](C)C[C@H](OC)[C@@H](O)[C@@H](C)C=C(C)[C@@H]1OC(N)=O)C2=O,Potency,[4],active: 935 nM
same,Potency,[2],active: 743 nM
same,Potency,[5],active: 148 nM
C=CC(=O)Nc1cccc(Nc2nc(NC3CCC(N(C)C)CC3)nc3c2ncn3C(C)C)c1 (stereo not drawn),Potency,[1],active: 3320 nM
same,Potency,[2],active: 3320 nM
same,Potency,[6],active: 1050 nM
COC(=O)C1=C(C)NC(C)=C(C(=O)OCCN2CCN(C(c3ccccc3)c3ccccc3)CC2)C1c1cccc([N+](=O)[O-])c1 (stereo not drawn),Potency,[4],inactive
same,Potency,[5],inactive
Cc1c(C(=O)Nc2ccc(N3C[C@@H](C)O[C@@H](C)C3)nc2)cccc1-c1ccc(OC(F)(F)F)cc1,Potency,[1],active: 2350 nM
same,Potency,[7],active: 2960 nM
CC[C@@H]1C=C(C)C[C@H](C)C[C@H](OC)[C@H]2O[C@@](O)(C(=O)C(=O)N3CCCC[C@@H]3C(=O)O[C@H](C(C)=C[C@@H]3CC[C@H](Cl)[C@H](OC)C3)[C@H](C)[C@@H](O)CC1=O)[C@H](C)C[C@H]2OC,Potency,[1],inactive
same,Potency,[7],"inconclusive: 1320 nM [cytotoxic, full curve, poor fit]"
same,Potency,[5],inactive
same,Potency,[6],active: 1480 nM
C=CC1=C(C(=O)O)N2C(=O)[C@@H](NC(=O)C(=NO)c3csc(N)n3)[C@H]2SC1,Potency,[1],"inconclusive: 11800 nM [cytotoxic, single point]"
same,Potency,[6],inactive
CC(=O)OCC(=O)[C@@]1(O)CC[C@H]2[C@@H]3CCC4=CC(=O)CC[C@]4(C)[C@@H]3C(=O)C[C@@]21C,Potency,[1],inactive
same,Potency,[7],inactive
same,Potency,[6],inactive
CCOC(=O)N1CCN([N+]([O-])=NOc2cc(ON=[N+]([O-])N3CCN(C(=O)OCC)CC3)c([N+](=O)[O-])cc2[N+](=O)[O-])CC1,Potency,[4],inactive
same,Potency,[2],inactive
same,Potency,[6],inactive
CCN1CCN(C(=O)N[C@H](C(=O)N[C@@H]2C(=O)N3C(C(=O)O)=C(CSc4nnnn4C)CS[C@@H]23)c2ccc(O)cc2)C(=O)C1=O,Potency,[1],inactive
same,Potency,[5],inactive
same,Potency,[6],inactive
O=C1NC(=O)C(=Cc2ccc(-c3ccc(F)cc3O)o2)S1,Potency,[4],"inconclusive: 1050 nM [cytotoxic, full curve, poor fit]"
same,Potency,[7],inactive
same,Potency,[6],"inconclusive: 743 nM [cytotoxic, full curve, poor fit]"
CN1CC(=O)N2C(Cc3c([nH]c4ccccc34)[C@H]2c2ccc3c(c2)OCO3)C1=O (stereo partly drawn),Potency,[1],inactive
same,Potency,[2],inactive
same,Potency,[5],inactive
C[C@]12CC[C@H](O)CC1=CC[C@@H]1[C@H]2CC[C@]2(C)C(c3cccnc3)=CC[C@H]12,Potency,[4],inactive
same,Potency,[7],inactive
same,Potency,[5],inactive
same,Potency,[6],inactive
CC(=O)O[C@]1(C(C)=O)CC[C@H]2[C@@H]3C=C(C)C4=CC(=O)CC[C@]4(C)[C@@H]3CC[C@@]21C,Potency,[4],inactive
same,Potency,[6],inactive
O=S(=O)(NCCNCC=Cc1ccc(Br)cc1)c1cccc2cnccc12,Potency,[4],inactive
same,Potency,[7],"inconclusive: 3720 nM [cytotoxic, full curve, poor fit]"
same,Potency,[5],"inconclusive: 2640 nM [cytotoxic, full curve, poor fit]"
same,Potency,[6],"inconclusive: 4180 nM [cytotoxic, partial curve, poor fit]"
CC(=O)O[C@H]1C[C@@H]2CC[C@H]3[C@H]4C[C@H]([N+]5(C)CCCCC5)[C@@H](OC(C)=O)[C@@]4(C)CC[C@@H]3[C@@]2(C)C[C@H]1N1CCCCC1,Potency,[1],inactive
same,Potency,[2],inactive
Cn1cc(C=C2C(=O)Nc3cccnc32)c2ccccc21,Potency,[4],"inconclusive: 13200 nM [cytotoxic, partial curve]"
same,Potency,[2],active: 23500 nM
COc1ccc(-c2cc(=O)c3c(O)cc(O[C@@H]4O[C@H](CO[C@@H]5O[C@@H](C)[C@H](O)[C@@H](O)[C@@H]5O)[C@@H](O)[C@H](O)[C@@H]4O)cc3o2)cc1O,Potency,[4],inactive
same,Potency,[7],inactive
same,Potency,[6],inactive
CC(=O)OCC(=O)[C@@]1(O)CC[C@H]2[C@@H]3CCC4=CC(=O)C=C[C@]4(C)[C@@H]3[C@@H](O)C[C@@]21C,Potency,[4],"inconclusive: 52.6 nM [cytotoxic, full curve, poor fit]"
same,Potency,[7],"inconclusive: 93.5 nM [cytotoxic, full curve, poor fit]"
same,Potency,[6],inactive
CCC(=O)N[C@H]1CC[C@H](C(=O)N(C)c2ccc(-c3nc4ccccc4o3)cc2)C1,Potency,[4],"inconclusive: 26400 nM [cytotoxic, single point]"
same,Potency,[2],"inconclusive: 37200 nM [cytotoxic, single point]"
same,Potency,[7],inactive
same,Potency,[5],"inconclusive: 20900 nM [cytotoxic, partial curve, poor fit]"
same,Potency,[6],"inconclusive: 26400 nM [cytotoxic, single point]"
same,Potency,[8],"inconclusive: 316 nM [cytotoxic, full curve]"
CC(C)(O)[C@H]1CC[C@@](C)([C@H]2[C@@H](O)C[C@@]3(C)[C@@H]4C[C@H](O[C@@H]5O[C@H](CO)[C@@H](O)[C@H](O)[C@@H]5O)[C@H]5C(C)(C)[C@@H](O[C@@H]6OC[C@@H](O)[C@H](O)[C@@H]6O)CC[C@@]56C[C@@]46CC[C@]23C)O1,Potency,[2],inactive
same,Potency,[7],inactive
